Results as given in patent publication US11505533B2, “Metabolically stable N-acylaminooxadiazoles useful as antibacterial agents” (MICROBIOTIX, INC., priority 2017, dated 2022).
Some of these results come from one statement about several compounds together. At least one structure is not confirmed: it was looked up by name or label, or the drawing left a doubt.

System: 36 mammalian receptors
Type: binding
Settings: 10 μM; all receptors of the panel

Row | Compound | inhibition against the potential off-target receptors (no intrinsic liabilities)
1 | O=C(Nc1nnc(-c2ccc(F)cc2)o1)c1ccc(Oc2ccccc2)nc1 [MBX-4237] | < 50%
2 | O=C(Nc1nnc(-c2ccc(F)cc2)o1)N1CC=C(C(F)(F)F)CC1 [MBX-4347] | < 50%
